Reference: PubChem BioAssay AID651640 (Broad Institute, 2012)
Where “and” joins values, the source holds several entries; their conditions need not be identical. Identical values can stand only once. The whole screen tested about 350,000 compounds, of which about 6,000 (1.7%) were called active. The inconclusive results got no clear call from the source; some entries with a clear call stand among them for comparison. No stated cut-off is given here; in the data, active means CPE inhibition above about 20% (passing the limit was not always enough); inconclusive means no clear call, values can overlap the other calls; tested in BHK-21 cells.

Experiment: protection of cells from dengue 2 killing – plate reader, single concentration, primary screen (AID 651640);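 further: 0% = median of neutral control wells and 100% = median of positive control wells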
Settings: DENV2-infected cells, cytopathic effect rescue, at 9.99 µM, active compounds read high

Row | Compound | CPE inhibition
1 | CCN(C[C@@H]1[C@@H](c2ccc(-c3ccccc3)cc2)[C@H](CO)N1C(C)=O)C(C)=O | active: 22.2%
2 | C[C@H]1CN([C@@H](C)CO)S(=O)(=O)c2ccc(-c3ccncc3)cc2O[C@H]1CN(C)Cc1cccnc1 | inactive: 4.15%
3 | Cc1ccc(N=C(N)N=C(N)N)cc1 | inconclusive: 36.3%
4 | Cc1ccc(OCC(=O)NCCNC(=O)c2cnccn2)cc1C | inconclusive: 43.2%
5 | COc1ccc(NC(=O)N(C)C[C@@H]2Oc3cc(-c4ccc(C)cc4)ccc3S(=O)(=O)N([C@H](C)CO)C[C@@H]2C)cc1 | inactive: 11.5%
6 | C[C@H](CO)N1C[C@H](C)[C@H](CN(C)C(=O)Nc2ccccc2)Oc2ccc(N(C)C)cc2CC1=O | active: 44.7%
7 | C[C@@H]1CN([C@@H](C)CO)C(=O)CCCn2nncc2CO[C@@H]1CN(C)S(=O)(=O)c1ccc(Cl)cc1 | inactive: 14.7% and inactive: 9.37% and inactive: 2.36%
8 | CC(/C=C1\SC(=S)N(NC(=O)c2ccc(O)cc2)C1=O)=C\c1ccccc1 | inactive: -8.32%
9 | C[C@@H]1CN([C@@H](C)CO)C(=O)c2cccc(NC(=O)Nc3ccc4c(c3)OCO4)c2O[C@H]1CN(C)C(=O)Nc1ccccc1 | inactive: -1.7%
10 | C[C@@H]1CN([C@H](C)CO)C(=O)c2cc(NS(=O)(=O)c3ccc(Cl)cc3)ccc2O[C@H]1CN(C)C(=O)Nc1ccc(F)cc1 | inconclusive: 45.5%
11 | CCn1c(SCC(=O)NNC(=O)c2ccco2)nnc1-c1ccco1 | inconclusive: 20.2%
12 | C[C@H]1CN([C@@H](C)CO)C(=O)c2cc(NC(=O)CCC(F)(F)F)ccc2O[C@H]1CN(C)S(=O)(=O)c1ccc(F)cc1 | inactive: 13.2%
13 | O=C(N/N=C/c1ccsc1)C1CC1 | inactive: 6.42%
14 | C/C(=N\NC(=O)Cn1nc(C)c(Br)c1C)c1cccs1 | inconclusive: 43%
15 | CCCCOc1ccc(NC(=O)[C@@H]2CCCN2C(=O)C2CCN(S(=O)(=O)c3ccc(C)cc3)CC2)cc1 | inconclusive: 47.1%
16 | CC(NC(=O)COC(=O)C1CCN(c2ccc(C(F)(F)F)cn2)CC1)c1ccc(F)cc1 (configuration not stated) | inactive: 1.49%
17 | CC(C)Cc1nc(SCC(=O)NCC2CCCO2)c2c(=O)n(C)c(=O)n(C)c2n1 (configuration not stated) | inconclusive: 55.2%
18 | O=C(NCc1cccs1)c1csc(COCCO)n1 | inconclusive: 59.1%
19 | CCC1OC2(C)OC(=N)C1(C#N)C(C#N)(C#N)C2c1ccccc1 (configuration not stated) | inconclusive: 28%
20 | COC(=O)CN(c1cc(Cl)ccc1OC)S(=O)(=O)c1ccc(OC)c(OC)c1 | active: 60.9%
21 | O=C(NCc1ccncc1)[C@@H]1CCCN1C(=O)[C@H]1CCCN1C(=O)c1cccc(Cl)c1 | inconclusive: 22.7%
22 | CCOC(=O)SC1=N/C(=C\c2ccc(N(C)C)cc2)C(=O)S1 | inactive: -3.52%
23 | COc1ccccc1Oc1cn[nH]c1-c1ccc(OCC(=O)NN)cc1O | inconclusive: 44.8%
24 | Cc1cc(C)cc(SCc2noc(C(=O)NCC3CC3)c2C(=O)NCC2CC2)c1 | inconclusive: 30.4%

Row | Compound | CPE inhibition
25 | CC1CCN(c2ccc(S(=O)(=O)NC3=NCCCCC3)cc2[N+](=O)[O-])CC1 | inconclusive: 32.2%
26 | CCS(=O)(=O)n1nc(-c2ccc(Cl)cc2)nc1N | inconclusive: 29.8%
27 | C[C@@H]1CN([C@H](C)CO)C(=O)c2cc(NC(=O)CCCCCC(=O)Nc3ccccc3N)ccc2O[C@H]1CN(C)C | inconclusive: 28.9%
28 | CN1/C(=C\C(=O)COC(=O)c2nccnc2N)C(C)(C)c2ccccc21 | inactive: 1.1%
29 | CCOc1ccccc1/C=N/Nc1nc2c(N)ncnc2n1[C@H]1O[C@@H](CO)[C@H](O)[C@@H]1O | inconclusive: 21.7%
30 | N#C[C@H]1[C@H](c2ccc(-c3ccccc3F)cc2)[C@@H](CO)N1C(=O)C1CC1 | active: 30%
31 | CC(C)c1ccccc1NC(=O)COC(=O)c1cc([N+](=O)[O-])ccc1N1CCOCC1 | inactive: -1.08%
32 | Cn1c(N)c(Sc2ccccc2[N+](=O)[O-])c(=O)n(C)c1=O | inconclusive: 31.5%
33 | Cc1cccc(NC(=O)N2CCCC(CNC(=O)c3ccccc3Cl)C2)c1C (configuration not stated) | inactive: 8.48%
34 | C[C@@H]1CN([C@@H](C)CO)C(=O)c2cc(NC(=O)NC3CCCCC3)ccc2O[C@@H]1CN(C)Cc1ccc(-c2ccccc2)cc1 | inactive: 3.63%
35 | OC(c1ccc(F)c(F)c1)c1nc(-c2cnc3ccccc3c2)cs1 (configuration not stated) | inconclusive: 30%
36 | Cc1ccc(C)c(N2CCN(C(=O)c3ccc(Cl)c(NC4=NC5CS(=O)(=O)CC5S4)c3)CC2)c1 (configuration not stated) | active: 28%
37 | Fc1cc(Br)ccc1Nc1nc2ccccc2n2nnnc12 | inconclusive: 26%
38 | Cc1[nH]c2ccccc2c1CC(=O)Nc1ccc(Nc2cccnc2)c(-c2ccc(C(C)(C)C)cc2)c1 | inconclusive: 26.1%
39 | C[C@H](CO)N1C[C@H](C)[C@H](CN(C)Cc2ccc(C(=O)Nc3ccccc3N)cc2)Oc2ccc(NC(=O)Cn3cnnn3)cc2CC1=O | active: 55%
40 | C[C@@H]1CN([C@H](C)CO)C(=O)c2cccc(NC(=O)C3CCOCC3)c2O[C@H]1CN(C)S(=O)(=O)c1cn(C)cn1 | inconclusive: 25.6%
41 | CC(=O)OCC(=O)C1(O)CCC2C3CCC4=CC(=O)C=CC4(C)C3C(=O)CC21C (configuration not stated) | inconclusive: 56.3%
42 | CCC(=O)N1CC2(CCN(S(C)(=O)=O)CC2)c2c(n(C)c3cc(OC)ccc23)[C@@H]1CO | inactive: 4.71%
43 | C[C@H]1CN([C@@H](C)CO)C(=O)CCCn2cc(nn2)CO[C@H]1CN(C)S(=O)(=O)c1ccccc1 | inconclusive: 22.6%
44 | C/C=C/c1cnc2c(c1)C(=O)N([C@H](C)CO)C[C@H](C)[C@H](CN(C)C(=O)NC1CCCCC1)O2 | inactive: -4.94%
45 | Cc1ccc(SC[C@H](C)CN2CC[C@H](NC(=O)OCc3ccccc3)CCC2=O)cc1 | inconclusive: 43.8%
46 | CCN(CC(=O)Nc1ccc(NC(C)=O)cc1)C(=O)C(c1ccccc1)c1ccccc1 | inactive: 7.66%
47 | Cc1ccc2nc(N(CCN(C)C)C(=O)C3CCN(S(=O)(=O)c4cccs4)CC3)sc2c1 | inconclusive: 28.1%
